At least one compound was matched to its structure with a doubt left. Marks after values point to notes of the source that are not given here.
Key:
[1] = Insulin secretion during ivGTT in male Wistar rats; type: in vivo
Method: Methods: An intravenous glucose tolerance test (ivGTT) in Male Wistar rats is used to estimate insulinotropic potency of the Example compounds. A GLP-1R agonist, semaglutide, is used as a positive control. […] Semaglutide is used as positive control in connection with each run of Example compounds ([…] dose).
A time 0 blood sample is collected into EDTA tubes after which glucose is administered ([…], 5 mL/kg). Blood samples are collected for glucose and insulin levels at time 2, 4, 6, 10, 20 and 30 min post intravenous administration of glucose. Plasma insulin is determined using an electrochemiluminescence assay (Meso Scale; Rockville, MD).
Statistical analysis is performed using JMP with a one-way ANOVA followed by Dunnett's comparison to the vehicle control.

[2] = Weight loss, metabolism and body composition in DIO C57/B16 mice; type: in vivo; settings: for Δ Cholesterol / Δ Glucose / Δ Insulin / Δ Trigs: day 15 difference vs vehicle; for Fat Mass (%): difference in fat mass between days 0 and 15 (NMR); for Δ Body Weight (%): percent decrease between days 1 and 15, DIO mice
Method: Methods: To investigate the effects of the Example compounds on parameters such as weight loss, metabolism and body composition, the Example compounds are dosed to C57B16 DIO mice. These animals, although not diabetic, display insulin resistance and dyslipidemia, all characteristics of metabolic syndrome, after being placed on a high fat diet for 20 weeks.
Here, DIO male C57/B16 mice at 20 weeks old are maintained on a calorie-rich diet are used in the following studies. […] After a 3-week acclimation to the facility, which includes 1 week of vehicle acclimation dosing, the mice are randomized according to their body weight, so each experimental group of animals would have similar body weight.
All groups contain 6 mice. […] Body weight and food intake are measured daily throughout the study, including 1 day after last dose (Day 15).
Absolute changes in body weight are calculated by subtracting the body weight of the same animal prior to the first injection of molecule. On Days 0 and 15, total fat mass is measured by nuclear magnetic resonance (NMR) using an Echo Medical System (Houston, TX) instrument. On Day 15, metabolic parameters are measured using Accu-Chek® Aviva® Glucometers (Roche; Indianapolis, IN) or a Hitachi clinical blood analyzer (Roche, Indianapolis, IN). Plasma insulin is determined using an electrochemiluminescence assay (Meso Scale Discovery, Rockville, MD).
Data are presented as mean±t SEM of 6animals per group in Tables 7 and 8 below. Statistical analysis is performed using repeated measures ANOVA, followed by Dunneti's method for multiple comparisons. Significant differences are identified as * with p<0.05.

[3] = 0.15625 nmol/kg SQ daily, DIO mice
[4] = 0.625 nmol/kg SQ daily, DIO mice

SMILES: CC[C@H](C)[C@H](NC(=O)[C@H](Cc1ccccc1)NC(=O)C(C)(C)NC(=O)[C@](C)(CC(C)C)NC(=O)[C@H](CCC(N)=O)NC(=O)[C@H](C)NC(=O)[C@H](CCCCNC(=O)COCCOCCNC(=O)CC[C@H](NC(=O)CCCCCCCCCCCCCCCCCCC(=O)O)C(=O)O)NC(=O)[C@H](CCCN)NC(=O)[C@H](CC(=O)O)NC(=O)[C@H](CC(C)C)NC(=O)[C@](C)(CC(C)C)NC(=O)[C@@H](NC(=O)[C@H](CO)NC(=O)[C@H](Cc1ccncc1)NC(=O)[C@H](CC(=O)O)NC(=O)[C@H](CO)NC(=O)[C@@H](NC(=O)[C@](C)(Cc1ccccc1F)NC(=O)[C@@H](NC(=O)CNC(=O)[C@H](CCC(N)=O)NC(=O)C(C)(C)NC(=O)[C@@H](N)Cc1ccc(O)cc1)[C@@H](C)O)[C@@H](C)O)[C@@H](C)CC)C(=O)N[C@H](CCC(=O)O)C(=O)N[C@@](C)(Cc1ccc(O)cc1)C(=O)N[C@@H](CC(C)C)C(=O)N[C@@H](CC(C)C)C(=O)N[C@@H](CCC(=O)O)C(=O)NCC(=O)NCC(=O)N1CCC[C@H]1C(=O)N[C@@H](CO)C(=O)N[C@@H](CO)C(=O)NCC(=O)N[C@@H](CCC(=O)O)C(=O)N1CCC[C@H]1C(=O)N1CCC[C@H]1C(=O)N1CCC[C@H]1C(=O)N[C@@H](CO)C(N)=O [Example 3]
- AUC30 min of Insulin After Bolus IV Glucose ([1]; 0.1 nmol/kg SQ 16 hr prior to glucose): 67.0
- AUC30 min of Insulin After Bolus IV Glucose ([1]; 0.3 nmol/kg SQ 16 hr prior to glucose): 77.6
- AUC30 min of Insulin After Bolus IV Glucose ([1]; 1 nmol/kg SQ 16 hr prior to glucose): 86.9
- AUC30 min of Insulin After Bolus IV Glucose ([1]; 3 nmol/kg SQ 16 hr prior to glucose): 97.2
- AUC30 min of Insulin After Bolus IV Glucose ([1]; 10 nmol/kg SQ 16 hr prior to glucose): 119.8
- AUC30 min of Insulin After Bolus IV Glucose ([1]; 30 nmol/kg SQ 16 hr prior to glucose): 174.8
- Δ Body Weight ([2]; 0.15625 nmol/kg SQ daily 14 days, day 15, difference vs vehicle, DIO mice): -1.95 ± 0.13 g
- Δ Cholesterol [2, 3]: -14.50 ± 5.03 mg/dL
- Δ Glucose [2, 3]: −26.97 ± 6.52* mg/dL
- Δ Insulin [2, 3]: 0.48 ± 1.80 ng/mL
- Δ Trigs [2, 3]: 40.67 ± 1.75 mg/dL
- Fat Mass (%) [2, 3]: −3.34 ± 0.60%
- Δ Body Weight (%) ([2]; 0.15625 nmol/kg SQ daily): −4.60 ± 0.71%
- Δ Body Weight (g) ([2]; 0.625 nmol/kg SQ daily 14 days, day 15, difference vs vehicle, DIO mice): −5.18 ± 0.25* g
- Δ Cholesterol [2, 4]: −37.83 ± 4.80* mg/dL
- Δ Glucose [2, 4]: −19.47 ± 6.65* mg/dL
- Δ Insulin [2, 4]: -4.49 ± 3.03 ng/mL
- Δ Trigs [2, 4]: 40.33 ± 1.58 mg/dL
- Fat Mass (%) [2, 4]: −8.03 ± 0.84* %
- Δ Body Weight (%) ([2]; 0.625 nmol/kg SQ daily): −11.91 ± 0.99* %
- Δ Body Weight (g) ([2]; 2.5 nmol/kg SQ daily 14 days, day 15, difference vs vehicle, DIO mice): −11.65 ± 1.68* g
- Δ Cholesterol ([2]; 2.5 nmol/kg SQ daily, DIO mice): −136.50 ± 5.42* mg/dL
- Δ Glucose ([2]; 2.5 nmol/kg SQ daily, DIO mice): −33.47 ± 1.69* mg/dL
- Δ Insulin ([2]; 2.5 nmol/kg SQ daily, DIO mice): −7.25 ± 3.60* ng/mL
- Δ Trigs ([2]; 2.5 nmol/kg SQ daily, DIO mice): -7.17 ± 6.52 mg/dL
- Fat Mass (%) ([2]; 2.5 nmol/kg SQ daily, DIO mice): −18.55 ± 2.41* %
- Δ Body Weight (%) ([2]; 2.5 nmol/kg SQ daily): −25.98 ± 3.85* %
- Δ Body Weight (g) ([2]; 10 nmol/kg SQ daily 14 days, day 15, difference vs vehicle, DIO mice): −18.43 ± 0.68* g
- Δ Cholesterol ([2]; 10 nmol/kg SQ daily, DIO mice): −162.50 ± 4.09* mg/dL
- Δ Glucose ([2]; 10 nmol/kg SQ daily, DIO mice): −48.72 ± 6.41* mg/dL
- Δ Insulin ([2]; 10 nmol/kg SQ daily, DIO mice): −7.61 ± 3.80* ng/mL
- Δ Trigs ([2]; 10 nmol/kg SQ daily, DIO mice): 29.00 ± 21.71 mg/dL
- Fat Mass (%) ([2]; 10 nmol/kg SQ daily, DIO mice): −28.50 ± 1.55* %
- Δ Body Weight (%) ([2]; 10 nmol/kg SQ daily): −41.10 ± 1.51* %
- Δ Body Weight (g) ([2]; 20 nmol/kg SQ daily 14 days, day 15, difference vs vehicle, DIO mice): −19.92 ± 0.34* g
- Δ Cholesterol ([2]; 20 nmol/kg SQ daily, DIO mice): −186.83 ± 7.59* mg/dL
- Δ Glucose ([2]; 20 nmol/kg SQ daily, DIO mice): −55.97 ± 6.74* mg/dL
- Δ Insulin ([2]; 20 nmol/kg SQ daily, DIO mice): −7.69 ± 3.79* ng/mL
- Δ Trigs ([2]; 20 nmol/kg SQ daily, DIO mice): -16.50 ± 1.60 mg/dL
- Fat Mass (%) ([2]; 20 nmol/kg SQ daily, DIO mice): −29.23 ± 1.29* %
- Δ Body Weight (%) ([2]; 20 nmol/kg SQ daily): −44.22 ± 1.01* %
